In the assay the test system is primary cortical neuron cells. Kind of assay: Toxicity of human Aβ1-42 peptide on primary cortical neuron cells (MAP2 antibody labelling). The assay is classed as cell-based, rat. The conditions noted are these: combinations versus drugs used alone at the same doses. Here is the method:
Effect on the Toxicity of Human Aβ1-42 Peptide on Primary Cortical Neuron Cells.
Culture of Primary Cortical Neurons
Rat cortical neurons are cultured as described by Singer et al.. Briefly pregnant female rats of 15 days gestation were killed by cervical dislocation (Rats Wistar) and the foetuses were removed from the uterus. The cortex was removed and placed in ice-cold medium of Leibovitz (L15) containing 2% of Penicillin 10.000 U/ml and Streptomycin 10 mg/ml and 1% of bovine serum albumin (BSA). Cortices were dissociated by trypsin for 20 min at 37° C. (0.05%). The reaction was stopped by the addition of Dulbecco's modified Eagle's medium (DMEM) containing DNase 1 grade II and 10% of fetal calf serum (FCS). Cells were then mechanically dissociated by 3 serial passages through a 10 ml pipette and centrifuged at 515×g for […] at +4° C. The supernatant was discarded and the pellet of cells was re-suspended in a defined culture medium consisting of Neurobasal supplemented with B27 (2%), L-glutamine (0.2 mM), 2% of PS solution and 10 ng/ml of BDNF. Viable cells are counted in a Neubauer cytometer using the trypan blue exclusion test. […]
Data are expressed in percentage of control conditions (no intoxication, no amyloid=100%) in order to express the amyloid injury. All values are expressed as mean+/−SEM (s.e.mean) of the 3 cultures (n=6 wells per condition). […]

Structures are written as SMILES.

As to `COc1cc2c(cc1OC)C(=O)C(CC1CCN(Cc3ccccc3)CC1)C2` (stereo not shown) [donepezil], the “protective effect on neuronal cells against Aβ1-42 toxicity” value is recorded as “no or a marginal protective effect”.
